# Data as given in PubChem BioAssay AID493014 (National Center for Advancing Translational Sciences (NCATS), 2011).
# The whole screen tested about 340,000 compounds, of which about 170 (0.05%) were called active. The inconclusive results got no clear call from the source; some entries with a clear call stand among them for comparison. Calls come from the whole dose curve; as a rule, active = well fitted inhibition curve with a large enough effect in the signal ratio, with a control signal flat (not every such curve was filed as active); inconclusive = small, poorly fitted or top-dose-only effect, or effect the other way, or a change in a side signal; inactive = flat fitted curve, though single readings scatter; the % refers to the signal ratio. Where the call is inconclusive, the potency comes from a doubtful curve fit.
# Assay: qHTS Assay to Find Inhibitors of Chronic Active B-Cell Receptor Signaling;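 for activity change, negative = inhibition: plate controls were basal doxycycline-induced cells for no effect and cells given 10 µM MG132 for full effect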
# Settings: ABC-DLBCL IkBa-CBG/CBR reporter, luminescence ratio (green luciferase fused to IkBa over red control in TMD8 lymphoma cells), 4 h; activity change, negative = inhibition: at 46.1 µM (top of the series) unless noted
# Outline: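 Doxycycline induced both beetle luciferases in TMD8 lymphoma cells; IKK-driven degradation limits the IkappaBalpha-fused green signal, while red luminescence normalises for cell number and nonspecific effects. Compounds tested up to 46 uM, 4 hrs.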
# Potency is the fitted concentration of half-maximal effect.
SMILES,Potency,"activity change, negative = inhibition"
COc1ccc(-c2ccc(SCC(=O)Nc3cc(C)on3)nn2)cc1OC,"inconclusive: 14.6 µM [falling, partial curve]",
CCCCCC(=O)Nc1cccc(C2=NOC3(C2)C[C@@H](C(N)=O)N(C(=O)c2ccc(OC)cc2)C3)c1 (some centres undefined),,inactive: -1.4%
COc1ccc(NC(=O)COc2ccc(C(=O)OCC(=O)N(C)C3CCS(=O)(=O)C3)cc2OC)cc1 (centres undefined),"inconclusive: 22.4 µM [falling, single point]",
N#Cc1c(Oc2ccc3ccccc3c2)sc(C(=O)c2ccccc2)c1N,,inactive: -7.39%
CCOc1ccc(-c2cc(CCCC(=O)NCCC(C)C)no2)cc1,"inconclusive: 6.31 µM [falling, partial curve, poor fit]",
N#CC1=C(N)OC2=C(C(=O)CC(c3ccccc3)C2)C1c1cccnc1 (centres undefined),,inconclusive: -0.275%
Cc1cccc(NC(=O)COc2coc(CN3CCN(c4ccccc4)CC3)cc2=O)c1C,,inactive: 7.92%
Cc1nnc(NC(=O)c2cc(-c3ccco3)nc3ccccc23)s1,,inconclusive: -0.714%
COc1ccc(NC(=O)CSc2nc3nc(C)cc(C)c3c(=O)[nH]2)cc1OC,,inactive: 1.03%
N/C(=N\OC(=O)c1ccc(Cl)cc1Cl)c1cccnc1,,inconclusive: 9.8%
N#CCCN1CCN(S(=O)(=O)c2ccc3c(c2)OCCCO3)CC1,,inconclusive: -0.199%
Cc1cccc(C(=O)Nc2nccs2)c1[N+](=O)[O-],,inconclusive: 3.47%
COc1ccc(C(=O)N/C(=C\c2cccc3ccccc23)C(=O)NCCc2c[nH]c3ccccc23)cc1OC,,inconclusive: 15.5%
CCN1CCN(c2nc(-c3ccccn3)nc3ccccc23)CC1,,inactive: -28.5%
OC(COc1ccccc1CNCc1cccnc1)CN1CCc2ccccc2C1 (centres undefined),,inactive: -6.24%
N#C/C(=C\c1c(N2CCCCCC2)nc2ccccn2c1=O)C(N)=O,,inactive: -0.175%
Cn1cc(Br)c(C(=O)Nc2sc3c(c2C#N)CCC3)n1,,inconclusive: 11.3%
O=C(OCc1ccccc1F)c1cc2ccccc2cc1O,,inconclusive: 7.98%
COc1ccc(CNC(=O)COc2cc3c(c4oc(=O)cc(C)c24)CCC(C)(C)O3)cc1OC,,inactive: -5.38%
CN(Cc1ccccc1)c1nc(N)c([N+](=O)[O-])c(NCc2ccccc2)n1,,inconclusive: 8.77%
COc1ccc(N/C(=C(/C(Cl)=C(Cl)Cl)[N+](=O)[O-])n2nnc3ccccc32)cc1,,inconclusive: -1.74%
CN1CCN(/N=C/c2ccc(Br)cc2)CC1,,inconclusive: 7.52%
COc1ccc(N2CCN(CC(O)COc3ccccc3[N+](=O)[O-])CC2)cc1 (centres undefined),,inactive: -7.95%
COc1ccc(C2=NS(=O)(=O)N(C)C(C(=O)N3CCC(C)CC3)=C2)cc1,,inconclusive: 21%
CS(=O)(=O)NCCSCc1c(Cl)cccc1Cl,,inconclusive: -9.81%
CCOc1ccc2nc(-c3cc(NC(C)=O)ccc3O)sc2c1,"inconclusive: 0.562 µM [falling, full curve, poor fit]",
Fc1ccc(N/N=C/c2ccc(N3CCOCC3)cc2)c(F)c1,"inconclusive: 12.6 µM [falling, single point]",

SMILES,Potency,"activity change, negative = inhibition"
O=C(/C=C/c1cn(CC(O)CN2CCCCC2)c2ccccc12)c1ccccc1 (centres undefined),"inconclusive: 35.5 µM [falling, single point]",
Cc1cc(C)n(-c2nc3nonc3nc2Nc2cccc(C)c2C)n1,,inactive: 1.75%
Cc1ccc(C(=O)CCS(=O)(=O)c2ccc(Br)cc2)cc1,,inactive: -0.0101%
CN(C)c1ccc(C2C3=C(CCCC3=O)OC3=C2C(=O)CCC3)cc1,,inactive: 2.76%
CCOC(=O)N1CCC(NC(=O)Cn2ncc3ccccc32)CC1,,inconclusive: -0.451%
CCC(CO)Oc1cc(NCc2ccc(O)cc2)c2ncn(C(C)C)c2c1 (centres undefined),,inconclusive: -4.76%
CCN(CC(=O)Nc1ccc2c(c1)OCCO2)C(=O)COc1ccc(C)cc1,,inactive: -15.2%
COc1ccc(Cl)cc1NC(=O)CN(C)C(=O)Cc1ccc(-c2ccccc2)cc1,,inconclusive: -13.6%
Cc1cccc(C(=O)N/N=C/c2ccccn2)c1,"inconclusive: 29.1 µM [falling, single point]",
CCCCCNc1nc(NCCCO)c(C#N)c2c1CN(C)CC2,,inconclusive: 1.02%
Cc1nc(-c2ccccc2)sc1-c1ccn[nH]1,"inconclusive: 20 µM [falling, single point]",
CCOC(=O)CCSc1nc(C)c2cc(C)ccc2n1,"inconclusive: 5.8 µM [rising, full curve, poor fit]",
Cn1cc(/C=C/c2cc[n+](C)cc2)c2cc(Cl)ccc21,,inconclusive: -0.0527%
Cc1ccc(S(=O)(=O)Nc2ccc(NC(=O)Nc3cccc(C(F)(F)F)c3)cc2)cc1,,inconclusive: -8.13%
COCC(=O)Nc1ccc(C(=O)Nc2ccccc2Cl)cc1,"inconclusive: 8.91 µM [falling, partial curve]",
CN(CC(=O)Nc1ccc(Cl)cc1F)C1=NS(=O)(=O)c2ccccc21,,inactive: -10.7%
OCCC1CN(Cc2cccc3nonc23)CCN1C1CCCCC1 (centres undefined),"inconclusive: 6.31 µM [falling, partial curve, poor fit]",
CCN(CC)c1ccc(/C=N\NC(=O)c2cccc3cc[nH]c23)cc1,"inconclusive: 35.5 µM [cytotoxic, single point]",
O=C1N=C(N2CCN(Cc3ccccc3)CC2)S/C1=C/c1cccs1,,inactive: 9.3%
CCCN(Cc1ccccc1)C(=S)Nc1ccc(F)cc1,,inactive: 0.811%
Cn1c(=O)c2c(nc(Oc3cccc(O)c3)n2C)n(C)c1=O,,inconclusive: -0.431%
Clc1ccc(-c2nnc3n2-c2ccccc2SC3)cc1,"inconclusive: 35.5 µM [falling, single point]",
CCc1c(C)c2cc(Cl)c(O)c(CN3CCCC3)c2oc1=O,,inactive: -0.21%
Cc1ccc(-c2nn(C)c(=O)c3ccccc23)cc1S(=O)(=O)NCCN1CCOCC1,,inactive: -17.5%
Cc1ccccc1-n1c(-c2csc(C)c2C)n[nH]c1=S,,inconclusive: -18.8%
CCN1CCN(C(=O)c2cc3cc(Cl)ccc3[nH]2)CC1,,inconclusive: -9.73%
Cn1c(CC(=O)Nc2ccccc2)nnc1SCC(=O)c1ccccc1,"inconclusive: 29.1 µM [falling, single point]",

# Reformatted with tabs: 3 of the compounds above.
SMILES	Potency	activity change, negative = inhibition
Cn1cc(/C=C/c2cc[n+](C)cc2)c2cc(Cl)ccc21		inconclusive: -0.0527%
Cc1ccc(S(=O)(=O)Nc2ccc(NC(=O)Nc3cccc(C(F)(F)F)c3)cc2)cc1		inconclusive: -8.13%
COCC(=O)Nc1ccc(C(=O)Nc2ccccc2Cl)cc1	inconclusive: 8.91 µM [falling, partial curve]	
